Test results as given in US11980616B2, “Treating liver disease by selectively eliminating senescent cells” (Buck Institute for Research on Aging, priority 2014, dated 2024).

Test system: p16-3MR mice fed a high fat diet
Test: Glucose tolerance and insulin sensitivity in p16-3MR mice fed a high fat diet
Type: in vivo, mouse
Experimental: Groups of p16-3MR mice (n=9) were fed a high fat diet for four months mice or a regular chow diet. Animals were then treated with ganciclovir (3 rounds of 25 mg/kg ganciclovir administered daily for five consecutive days) or vehicle. A glucose bolus was given at time zero, and blood glucose was monitored at 20, 30, 60, and 120 minutes after delivering glucose to determine glucose disposal (see FIG. 69A). […] Insulin sensitivity was also determined (Insulin Tolerance Testing (ITT)). […] Changes in weight, body composition, and food intake were also monitored.

Nc1nc(O)c2ncn(COC(CO)CO)c2n1 [ganciclovir]
Body composition (percent of fat) (p16-3MR mice, high fat diet): did not alter
Body weight (p16-3MR mice, high fat diet): did not alter
Food intake (grams per week) (p16-3MR mice, high fat diet): did not alter
Change in insulin tolerance testing (wild-type mice): not observed
